Data as given in PubChem BioAssay AID1259424 (University of Nebraska Medical Center, 2018).
Test: 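Rank knockdowns across the genome by resemblance to the KSR1 depletion profile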 (primary screen). System: human HCT116 colon cancer cells. Knock-down reagent: siRNA pool against human genes, 50 nM. Measured: 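Log2 levels of six mRNAs (branched-DNA multiplex), adjusted by two reference genes and the non-targeting median, then scored against the average KSR1 knockdown pattern as Pearson r and euclidean distance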. Direction: mean correlation with KSR1 profile and KSR1 correlation: higher = expression change more like KSR1 knockdown; mean distance from KSR1 profile: higher = expression change less like KSR1 knockdown.
The whole screen tested about 14,000 reagents; below is an unselected part. 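Higher correlation or smaller distance means closer resemblance to KSR1 loss; control wells, including KSR1 knockdowns, recur on many plates.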 No sequences are given here. Not given: the time to read-out.

gene knocked down	mean correlation with KSR1 profile	mean distance from KSR1 profile	KSR1 correlation, replicate 1	KSR1 correlation, replicate 2	KSR1 correlation, replicate 3
CABS1	0.183	2.51	0.17	0.326	-0.0339
PPIL1	-0.274	2.5	-0.416	-0.0754	-0.368
VPS8	0.267	2.09	0.251	0.0879	0.268
ATRX	0.217	1.7	0.202	0.218	0.0731
PGCKA1	-0.247	3.2	-0.123	-0.33	-0.343
CALCOCO2	-0.864	2.08	-0.467	-0.851	-0.836
NOTCH4	-0.618	2.68	-0.513	-0.56	-0.844
PSTPIP2	-0.137	2.11	-0.215	-0.292	-0.256
DHPS	-0.0301	1.57	-0.152	0.209	-0.216
ZFAND6	-0.162	1.4	-0.295	-0.0887	-0.0534
CDO1	-0.116	1.18	0.0966	-0.0231	-0.0674
JUP	0.0368	1.79	0.0988	-0.514	0.132
HOOK2	-0.271	2.3	-0.8	-0.25	-0.481
PCDHB11	0.0457	3.04	0.102	0.173	0.00283
CHRNA2	0.508	0.972	0.769	0.382	0.332
EPS8L3	0.431	2.04	0.474	0.44	0.449
TYRO3	0.0731	2.36	0.454	-0.325	-0.276
CETP	-0.0845	1.98	-0.117	0.0739	-0.214
WBP1	-0.345	3.96	0.092	-0.699	-0.569
MAGEE1	-0.473	2.96	-0.424	-0.29	-0.481

3 entries from above, arranged by “KSR1 correlation, replicate 1”, low to high:
gene knocked down	mean correlation with KSR1 profile	mean distance from KSR1 profile	KSR1 correlation, replicate 1	KSR1 correlation, replicate 2	KSR1 correlation, replicate 3
ZFAND6	-0.162	1.4	-0.295	-0.0887	-0.0534
PSTPIP2	-0.137	2.11	-0.215	-0.292	-0.256
DHPS	-0.0301	1.57	-0.152	0.209	-0.216
